# Laboratory results published in the supplement of paper PMC4604168 (melanoma cell lines).
# The list shows a part of the results. Repeats are few or missing, and single values can be far off.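 The apoptosis fraction was the count of cleaved-PARP antibody-stained nuclei relative to all DNA-stained nuclei, imaged in 1,536-well plates. Screening doses were set so most cells survived, and baseline and induced cleaved-PARP levels vary greatly across cell lines.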
# Assays:
# Assay in all cases: cleaved PARP positive nuclei fraction relative to DMSO control; melanoma cells; higher = more apoptosis
# Settings in all cases: library dose: low library concentration; 72 h
# MZ2-MEL = test system: MZ2-MEL
# MeWo = test system: MeWo
# RPMI7951 = test system: RPMI7951
# RVH-421 = test system: RVH-421
# SkMel28 = test system: SkMel28
# SkMel2 = test system: SkMel2
# SkMel30 = test system: SkMel30
# SkMel5 = test system: SkMel5
# UACC257 = test system: UACC257
# UACC62 = test system: UACC62
# WM115 = test system: WM115
# WM1716 = test system: WM1716
# WM1745 = test system: WM1745
# WM3526 = test system: WM3526
# WM3619 = test system: WM3619
# WM451Lu = test system: WM451Lu
SMILES,cleaved PARP positive nuclei fraction (MZ2-MEL) [%],cleaved PARP positive nuclei fraction (MeWo) [%],cleaved PARP positive nuclei fraction (RPMI7951) [%],cleaved PARP positive nuclei fraction (RVH-421) [%],cleaved PARP positive nuclei fraction (SkMel28) [%],cleaved PARP positive nuclei fraction (SkMel2) [%],cleaved PARP positive nuclei fraction (SkMel30) [%],cleaved PARP positive nuclei fraction (SkMel5) [%],cleaved PARP positive nuclei fraction (UACC257) [%],cleaved PARP positive nuclei fraction (UACC62) [%],cleaved PARP positive nuclei fraction (WM115) [%],cleaved PARP positive nuclei fraction (WM1716) [%],cleaved PARP positive nuclei fraction (WM1745) [%],cleaved PARP positive nuclei fraction (WM3526) [%],cleaved PARP positive nuclei fraction (WM3619) [%],cleaved PARP positive nuclei fraction (WM451Lu) [%]
"CC[C@]1(O)C[C@H]2CN(CCc3c([nH]c4ccccc34)[C@@](C(=O)OC)(c3cc4c(cc3OC)N(C=O)[C@H]3[C@@](O)(C(=O)OC)[C@H](OC(C)=O)[C@]5(CC)C=CCN6CC[C@]43[C@@H]65)C2)C1 [vincristine] + C[C@@H]1CCN(C(=O)CC#N)C[C@@H]1N(C)c1ncnc2[nH]ccc12 [CP690550] (first compound 0.0001 µM, partner dose 1 µM)",122,108,127,43.7,82.4,128,104,87.1,184,117,339,164,104,110,163,190
"COc1cc([C@@H]2c3cc4c(cc3[C@@H](O[C@@H]3O[C@@H]5CO[C@@H](C)O[C@H]5[C@H](O)[C@H]3O)[C@H]3COC(=O)[C@H]23)OCO4)cc(OC)c1O [etoposide] + Oc1cc(-c2nc(-c3ccccc3)[nH]c2-c2ccncc2)ccc1Cl [L779450] (first compound 0.02 µM, partner dose 0.2 µM)",147,39.1,53.8,333,121,38.3,31.7,65.3,117,152,275,108,99.3,112,95.9,33.4
"Cc1cn(-c2cc(NC(=O)c3ccc(C)c(Nc4nccc(-c5cccnc5)n4)c3)cc(C(F)(F)F)c2)cn1 [nilotinib] + OCCn1cc(-c2cnc3nnn(Cc4ccc5ncccc5c4)c3n2)cn1 [PF04217903] (first compound 0.2 µM, partner dose 1 µM)",48,53.6,107,153,52.5,69.5,72,214,50.3,28.1,59.9,18.7,78.7,116,91.8,78
"O=C(Nc1cc(C(F)(F)F)cc(C(F)(F)F)c1)c1cc(Cl)ccc1O + CC(C)(C)c1cnc(CSc2cnc(NC(=O)C3CCNCC3)s2)o1 [SNS-032] (first compound 0.016 µM, partner dose 0.01 µM)",140,63.7,158,174,61.3,72.3,40.4,154,251,154,45.4,149,101,42.9,97,68
"CC[C@]1(O)C[C@H]2CN(CCc3c([nH]c4ccccc34)[C@@](C(=O)OC)(c3cc4c(cc3OC)N(C=O)[C@H]3[C@@](O)(C(=O)OC)[C@H](OC(C)=O)[C@]5(CC)C=CCN6CC[C@]43[C@@H]65)C2)C1 [vincristine] + O=c1cc(-c2cccc3c2Sc2ccccc2S3)oc(N2CCOCC2)c1 [KU55933] (first compound 0.0001 µM, partner dose 1 µM)",365,124,231,132,591,149,57.9,80.2,522,502,1970,298,111,101,173,496
"O=c1[nH]nc(Sc2ncc([N+](=O)[O-])s2)n1-c1ccc2c(c1)OCCO2 + c1cc(-c2cnn3cc(-c4ccc(OCCN5CCCCC5)cc4)cnc23)ccn1 [Dorsomorphin] (first compound 0.2 µM, partner dose 0.4 µM)",34.8,32,37.8,112,109,16.4,216,82.4,179,80,108,20.6,105,322,85.1,33.8
"N#CC[C@H](C1CCCC1)n1cc(-c2ncnc3[nH]ccc23)cn1 [ruxolitinib] + O=S(=O)(c1ccccc1)N(CC(F)(F)F)c1ccc(C(O)(C(F)(F)F)C(F)(F)F)cc1 [T0901317] (first compound 1 µM, partner dose 1.4 µM)",111,74.1,133,67.5,133,72.1,42.6,160,72.6,101,137,130,86.4,65.3,88.1,74.9
"CC[C@]1(O)C[C@H]2CN(CCc3c([nH]c4ccccc34)[C@@](C(=O)OC)(c3cc4c(cc3OC)N(C=O)[C@H]3[C@@](O)(C(=O)OC)[C@H](OC(C)=O)[C@]5(CC)C=CCN6CC[C@]43[C@@H]65)C2)C1 [vincristine] + CC(C)(C)c1cnc(CSc2cnc(NC(=O)C3CCNCC3)s2)o1 [SNS-032] (first compound 0.0001 µM, partner dose 0.01 µM)",262,105,222,47.8,27.3,66.3,57.5,135,325,541,1010,1070,110,30.8,233,261
"O=c1[nH]nc(Sc2ncc([N+](=O)[O-])s2)n1-c1ccc2c(c1)OCCO2 + N#Cc1c(O)c2c(-c3ccc(-c4ccccc4O)cc3)csc2[nH]c1=O [A769662] (first compound 0.2 µM, partner dose 2 µM)",22.3,22,187,82.3,63.2,62.1,146,128,63.7,50.1,53.8,37,93.2,82.7,91,60
"CC[C@]1(O)C[C@H]2CN(CCc3c([nH]c4ccccc34)[C@@](C(=O)OC)(c3cc4c(cc3OC)N(C=O)[C@H]3[C@@](O)(C(=O)OC)[C@H](OC(C)=O)[C@]5(CC)C=CCN6CC[C@]43[C@@H]65)C2)C1 [vincristine] + CN(C)S(=O)(=O)c1ccc2c(c1)/C(=C/c1cc3c([nH]1)CCCC3)C(=O)N2 [SU6656] (first compound 0.0001 µM, partner dose 0.4 µM)",116,60.7,68.8,47.2,260,131,128,226,1250,305,3070,245,107,120,170,296
"Cc1ccc(Nc2nccc(N(C)c3ccc4c(C)n(C)nc4c3)n2)cc1S(N)(=O)=O [Pazopanib] + CC1(C)NC(=O)N(c2ccc([N+](=O)[O-])c(C(F)(F)F)c2)C1=O [nilutamide] (first compound 0.4 µM, partner dose 1 µM)",41.4,70.8,132,34.4,84.6,121,72.1,50.3,63.5,127,91.4,68.1,320,161,93.5,53.3
"CCCCCCCCCCCCCCCCCCOP(=O)([O-])OC1CC[N+](C)(C)CC1 [Perifosine] + COc1ccc2c(c1)CCC1C2CCC2(C)C(NCCCCCCN3C(=O)C=CC3=O)CCC12 [U73122] (first compound 0.4 µM, partner dose 0.4 µM)",148,119,399,86.5,127,118,20.5,81.2,317,92.5,115,247,90.4,82.4,84.3,53.4
"CC[C@]1(O)C[C@H]2CN(CCc3c([nH]c4ccccc34)[C@@](C(=O)OC)(c3cc4c(cc3OC)N(C=O)[C@H]3[C@@](O)(C(=O)OC)[C@H](OC(C)=O)[C@]5(CC)C=CCN6CC[C@]43[C@@H]65)C2)C1 [vincristine] + CO[C@@H]1[C@H](N(C)C(=O)c2ccccc2)C[C@H]2O[C@]1(C)n1c3ccccc3c3c4c(c5c6ccccc6n2c5c31)C(=O)NC4 [Midostaurin] (first compound 0.0001 µM, partner dose 0.08 µM)",29.7,115,53.4,109,145,97.8,151,40.7,158,91.1,689,927,92.3,149,121,66.1
"O=C(Nc1cc(C(F)(F)F)cc(C(F)(F)F)c1)c1cc(Cl)ccc1O + N#Cc1c(O)c2c(-c3ccc(-c4ccccc4O)cc3)csc2[nH]c1=O [A769662] (first compound 0.016 µM, partner dose 2 µM)",74.9,87.2,30.9,113,139,78,81.9,81.2,175,108,37.7,118,80.9,33.4,63.3,38.9
"N#CC[C@H](C1CCCC1)n1cc(-c2ncnc3[nH]ccc23)cn1 [ruxolitinib] + O=C(Nc1cccc(Cl)c1)Nc1ncc(CCNc2ncnc3ccsc23)s1 [SNS314] (first compound 1 µM, partner dose 0.0008 µM)",22.1,60.3,69.4,195,65.6,22.1,56.2,62.7,68.6,242,156,129,81.3,53.7,77.8,100
"N#CC[C@H](C1CCCC1)n1cc(-c2ncnc3[nH]ccc23)cn1 [ruxolitinib] + CC(C)(C)c1cnc(CSc2cnc(NC(=O)C3CCNCC3)s2)o1 [SNS-032] (first compound 1 µM, partner dose 0.01 µM)",132,76.9,67.1,107,111,34.5,92.5,48.1,89.4,66.2,118,59.3,113,62,75.9,39.8
"O=C(Nc1cc(C(F)(F)F)cc(C(F)(F)F)c1)c1cc(Cl)ccc1O + c1cc(-c2cnn3cc(-c4ccc(OCCN5CCCCC5)cc4)cnc23)ccn1 [Dorsomorphin] (first compound 0.016 µM, partner dose 0.4 µM)",85.2,73.7,70.3,92.7,140,68.7,113,79.5,80.2,94.7,160,41.1,113,57.3,84.1,62.4
"CCCCCCCCCCCCCCCCCCOP(=O)([O-])OC1CC[N+](C)(C)CC1 [Perifosine] + O=C(Nc1cccc(Cl)c1)Nc1ncc(CCNc2ncnc3ccsc23)s1 [SNS314] (first compound 0.4 µM, partner dose 0.0008 µM)",82.1,33.6,81.1,50.4,63.7,95.3,71.2,73.4,39.9,53.7,260,69.5,109,129,106,291

# Shown with tabs: part of the list above.
SMILES	cleaved PARP positive nuclei fraction (MZ2-MEL) [%]	cleaved PARP positive nuclei fraction (MeWo) [%]	cleaved PARP positive nuclei fraction (RPMI7951) [%]	cleaved PARP positive nuclei fraction (RVH-421) [%]	cleaved PARP positive nuclei fraction (SkMel28) [%]	cleaved PARP positive nuclei fraction (SkMel2) [%]	cleaved PARP positive nuclei fraction (SkMel30) [%]	cleaved PARP positive nuclei fraction (SkMel5) [%]	cleaved PARP positive nuclei fraction (UACC257) [%]	cleaved PARP positive nuclei fraction (UACC62) [%]	cleaved PARP positive nuclei fraction (WM115) [%]	cleaved PARP positive nuclei fraction (WM1716) [%]	cleaved PARP positive nuclei fraction (WM1745) [%]	cleaved PARP positive nuclei fraction (WM3526) [%]	cleaved PARP positive nuclei fraction (WM3619) [%]	cleaved PARP positive nuclei fraction (WM451Lu) [%]
CC[C@]1(O)C[C@H]2CN(CCc3c([nH]c4ccccc34)[C@@](C(=O)OC)(c3cc4c(cc3OC)N(C=O)[C@H]3[C@@](O)(C(=O)OC)[C@H](OC(C)=O)[C@]5(CC)C=CCN6CC[C@]43[C@@H]65)C2)C1 [vincristine] + O=c1cc(-c2cccc3c2Sc2ccccc2S3)oc(N2CCOCC2)c1 [KU55933] (first compound 0.0001 µM, partner dose 1 µM)	365	124	231	132	591	149	57.9	80.2	522	502	1970	298	111	101	173	496
O=C(Nc1cc(C(F)(F)F)cc(C(F)(F)F)c1)c1cc(Cl)ccc1O + c1cc(-c2cnn3cc(-c4ccc(OCCN5CCCCC5)cc4)cnc23)ccn1 [Dorsomorphin] (first compound 0.016 µM, partner dose 0.4 µM)	85.2	73.7	70.3	92.7	140	68.7	113	79.5	80.2	94.7	160	41.1	113	57.3	84.1	62.4
